Measurements from PubChem BioAssay (EPA / NIEHS).
Where “and” joins values, the source holds several entries; their conditions need not be identical. Identical values can stand only once. Inconclusive results, whose numbers are uncertain, are shown with a selection of clear calls. Potencies beside an inconclusive call are fits to weak or partial responses and may not hold up. Some compounds were tested as several samples or in several runs, with calls that do not always agree. Calls of active or inactive are those of the source. The calls were made as follows: active = hit-call score of the fitted dose curve at least 0.9, where 1 is the maximum; inconclusive = response in the unintended direction; inactive = score below 0.9.

Assay: ATG_M_19_XSP2: Attagene TRANS-FACTORIAL Multi-Species (XSP2) HepG2 Assay for M32 Transcription Factor (Internal Marker) (AID 2283822)
Experimental: ATG_XSP2_multi-species_TRANS is a cell-based, multiplexed assay created by modifying the existing Attagene TRANS-FACTORIAL system to include a panel of nuclear receptors from some or all the following species: human (Homo sapiens), mouse (Mus musculus), frog (Xenopus laevis), zebrafish (Danio rerio), chicken (Gallus gallus), and turtle (Chrysemys picta). The ECOTOX-FACTORIAL format uses HepG2, a human liver cell line, with measurements taken at 24 hours after chemical dosing in a 24-well plate. Xsp2 included 3 nM 6-alpha-fluorotestosterone and 1.5 nM norgestrel to stimulate the androgen receptor.ATG_M_19_XSP2 is one of 29 assay components measured or calculated from the ATG_XSP2_multi-species_TRANS assay. It is designed to make measurements of mRNA induction, a form of inducible reporter, as detected with fluorescence intensity signals by Reverse transcription polymerase chain reaction (RT-PCR) and Capillary electrophoresis technology.This assay endpoint, ATG_M_19_XSP2, was analyzed in the positive analysis fitting direction relative to DMSO as the negative control and baseline of activity. Using a type of inducible reporter, measures of mRNA for gain-of-signal activity can be used to understand the background control at the transcription factor-level as they relate to the gene. Furthermore, this assay endpoint can be referred to as a secondary readout, because this assay has produced multiple assay endpoints where this one serves a background control function. To generalize the intended target to other relatable targets, this assay endpoint is annotated to the background measurement intended target family, where the subfamily is internal marker.
Human liver HepG2 cells are transiently transfected with multiple reporter transcription units (MRTUs) in 6-well plates using FuGene 6 reagent (Roche; 3 ml FuGene/1 mg DNA). The MRTU constructs are regulated by a cis-regulating element (promoter). […] A major difference between the CIS and TRANS system is that in CIS activities of endogenous TFs are measured, whereas the TRANS assay evaluates changes in activities of exogenous, chimeric NR-Gal4 proteins. […] At the end of 24 hour incubation, total RNA was isolated using TriZol reagent (Invitrogen). The isolated RNA is then reverse-transcribed using oligo(dT) primer and Mo-MLV reverse transcriptase (Invitrogen) with DNAse I (Ambion) treatment for 30 min. The one-tenth of the produced cDNA was amplified by PCR using Taq DNA polymerase (Invitrogen) and two reporter sequence-specific primers. The PCR products were fluorescently labeled by primer extension with 6-arboxyfluorescein (6-FAM) 5'-labeled reporter sequence-specific primer (2 min at 95 C, 20 s at 68 C and 10 min at 72 C) and these products were digested with 5U of HpaI (New England Biolabs) for 2h at 37 C. The fragments were purified using Qiaquick PCR columns (Qiagen), analyzed on an ABI 3130xL genetic analyzer (Applied Biosystems) with peak positions identified by using a set of X-rhodamine (ROX)-labeled MapMarker1000 molecular weight standards (BioVentures). The raw capillary electrophoresis data was processed using Attagraph software (Attagene).
For `C[C@]12CCC(=O)C=C1CC[C@@H]1[C@@H]2CC[C@]2(C)C(=O)CC[C@@H]12`, the AC50 was inconclusive: 23 nM and inconclusive: 26 nM.
With `O=S1OCC2C(CO1)C1(Cl)C(Cl)=C(Cl)C2(Cl)C1(Cl)Cl` (stereo not given) the AC50 was inconclusive: 10 µM.
In the case of `COc1ccc(C(=CC(=O)N2CCOCC2)c2ccc(Cl)cc2)cc1OC`, the AC50 is reported as inconclusive: 1.42 µM.
In the case of `CC(C)(C)c1cc(O)ccc1O`, the AC50 is reported as inconclusive: 1.03 µM.
In the case of `CC(=O)c1cc2c(cc1C)C(C)(C)C(C)CC2(C)C` (stereo not given), the outcome is reported as “inactive”.
For `CC(O)(CS(=O)(=O)c1ccc(F)cc1)C(=O)Nc1ccc(C#N)c(C(F)(F)F)c1` (stereo not given), the AC50 was inconclusive: 0.0987 µM.
With `COP(=S)(OC)Oc1ccc(SC)c(C)c1` the AC50 was inconclusive: 100 µM.
In the case of `CC(=O)C=C(C)C`, the AC50 is reported as inconclusive: 100 µM.
For `CC(c1ccc(O)cc1)(c1ccc(O)cc1)c1ccc(O)cc1`, the outcome was “inactive”.
In the case of `CCN(CC)C(=O)C(C)Oc1cccc2ccccc12` (stereo not given), the AC50 is reported as inconclusive: 100 µM.
With `CC1(C)C(C=C(Cl)Cl)C1C(=O)OC(C#N)c1ccc(F)c(Oc2ccccc2)c1` (stereo not given) the outcome was “inactive”.
For `O=c1oc2ccccc2c(O)c1C(CC(O)c1ccc(-c2ccc(Br)cc2)cc1)c1ccccc1` (stereo not given), the outcome was “inactive”.
For `CC(C)(C)c1ccc(O)cc1`, the AC50 was inconclusive: 26.6 µM.
In the case of `C[C@H]1CCCC(=O)CCC/C=C/c2cc(O)cc(O)c2C(=O)O1`, the AC50 is reported as inconclusive: 0.1 µM.
With `ClC(Cl)=C(c1ccc(Cl)cc1)c1ccc(Cl)cc1` the outcome was “inactive”.
In the case of `CC12CC1(C)C(=O)N(c1cc(Cl)cc(Cl)c1)C2=O` (stereo not given), the AC50 is reported as inconclusive: 100 µM.
In the case of `COP(=S)(OC)Oc1ccc([N+](=O)[O-])c(C)c1`, the AC50 is reported as inconclusive: 36.8 µM.
For `C[C@]12CCC(=O)C[C@@H]1CC[C@@H]1[C@@H]2CC[C@]2(C)[C@@H](O)CC[C@@H]12`, the AC50 was inconclusive: 1 µM.
In the case of `CON(C)C(=O)Nc1ccc(Cl)c(Cl)c1`, the outcome is reported as “inactive”.
For `CCCN(CCOc1c(Cl)cc(Cl)cc1Cl)C(=O)n1ccnc1`, the AC50 was inconclusive: 33.4 µM.
For `Clc1ccc(C(c2ccccc2Cl)C(Cl)(Cl)Cl)cc1` (stereo not given), the AC50 was inconclusive: 10 µM.
With `COCCl` the outcome was “inactive”.
With `CC(C)(O)C(=O)Nc1ccc([N+](=O)[O-])c(C(F)(F)F)c1` the AC50 was inconclusive: 100 µM.
With `CCCN(CCC)c1c([N+](=O)[O-])cc(C(F)(F)F)cc1[N+](=O)[O-]` the outcome was “inactive”.
In the case of `Oc1ccc(C(c2ccc(O)cc2)(C(F)(F)F)C(F)(F)F)cc1`, the outcome is reported as “inactive” and the AC50 is reported as active: 52.6 µM.
For `COP(=O)(OC)O/C(=C\Cl)c1cc(Cl)c(Cl)cc1Cl`, the AC50 was inconclusive: 4.84 µM.
In the case of `Oc1ccc(-c2ccccc2)cc1`, the AC50 is reported as inconclusive: 100 µM.
With `CCCCCOC(=O)c1ccccc1C(=O)OCCCCC` the outcome was “inactive”.
With `O=S(=O)(c1ccc(O)cc1)c1ccc(O)cc1` the AC50 was inconclusive: 5.87 µM.
For `COc1ccc(C(c2ccc(OC)cc2)C(Cl)(Cl)Cl)cc1`, the AC50 was inconclusive: 23.8 µM.
In the case of `CCCN(CCC)c1c([N+](=O)[O-])cc(S(N)(=O)=O)cc1[N+](=O)[O-]`, the AC50 is reported as inconclusive: 0.668 µM.
In the case of `CC(C)(c1ccccc1)c1ccc(O)cc1`, the AC50 is reported as inconclusive: 0.666 µM.
For `C[C@]12C=CC3=C4CCC(=O)C=C4CC[C@H]3[C@@H]1CC[C@@H]2O`, the AC50 was inconclusive: 0.1 µM.
With `CCC(CC)Nc1c([N+](=O)[O-])cc(C)c(C)c1[N+](=O)[O-]` the AC50 was inconclusive: 0.951 µM.
For `CCCCNC(=O)OCC#CI`, the AC50 was inconclusive: 100 µM.
For `COP(=S)(OC)Oc1ccc([N+](=O)[O-])cc1`, the outcome was “inactive”.
For `O=[N+]([O-])c1ccc(Oc2ccc(Cl)cc2Cl)cc1`, the AC50 was inconclusive: 100 µM.
For `CC1(C)C(C=C(Cl)Cl)C1C(=O)OC(C#N)c1cccc(Oc2ccccc2)c1` (stereo not given), the AC50 was inconclusive: 1.81 µM.
